Measured values: patent US10709724B2, “Methods of treating mitochondrial dysfunction” (Ecole Polytechnique Federale de Lausanne (EPFL), priority 2011, dated 2020)

Tested on: C57Bl/6J male mice
Experiment: PJ34 treatment of mice (5 days)
Format: in vivo
Conditions: 10 mg/kg i.p. twice a day
Experimental: Animal Experiments. Male PARP-1^+/+ and PARP-1^−/− mice on a pure C57Bl/6J background (Menissier-de Murcia et al., 1997) were used. Mice were housed separately, had ad libitum access to water and standard rodent chow (10 kcal % of fat, Safe, Augy, France) or to a high calorie, high fat diet (60 kcal % of fat, Research. Diets, New Brunswick, N.J., USA), and were kept under a 12 h dark-light cycle. In other animal experiments, 8 weeks-old male C57Bl/6J mice were purchased from Charles River and powder chow (D12450B) and high fat (D12492) diets were from Research Diets Inc (New Brunswick, N.J., USA). 80 ml of water per kg of powder CD were used to make food pellets. […] To monitor body weight, mice were weighed and the food consumption was measured each week on the same day. […] Oral glucose tolerance test, intraperitoneal insulin tolerance test, free fatty acid (FFA) and triglycerides were determined as described (Lagouge et al., 2006). Plasma insulin and was determined in heparinized plasma samples using specific ELISA kits (Mercodia). […] Plasma parameters were measured using a Cobas c111 (Roche Diagnostics). […] We measured O2 consumption, CO2 production, and spontaneous locomotor activity in an open circuit indirect calorimetry system (Sabre systems, Las Vegas, Nev., USA) over 24-48 has described (Dali-Youcef et al., 2007; Lagouge et al., 2006; Watanabe et al., 2006). […]

In the case of `CN(C)CC(=O)Nc1ccc2[nH]c(=O)c3ccccc3c2c1` [PJ34], the body weight is reported as “did not cause a difference” and the food consumption is reported as “did not cause a difference”.
